Measurements as given in paper PMC8590012.
These are yes or no findings as the source states them, for the method shown. In cells and extracts the contact can be indirect. Some entries that bind do so weakly or less than the wild type. Tags and fused reporters may be left off the sequences shown. Each block holds one binder with its values, some of them ahead of it.

Columns and labels:
[1] = target: T1, GFP-tagged Mtr10 (S. cerevisiae) (UniProt Q99189); assay: co-IP; yeast lysate in IP buffer (1 x PBS, 3 mM KCl, 2.5 mM MgCl2, 0.5% Triton X-100, protease inhibitors); GFP-tagged bait on GFP-Selector beads, 1 h at 4 °C, five washes; Western blot
T1 sequence: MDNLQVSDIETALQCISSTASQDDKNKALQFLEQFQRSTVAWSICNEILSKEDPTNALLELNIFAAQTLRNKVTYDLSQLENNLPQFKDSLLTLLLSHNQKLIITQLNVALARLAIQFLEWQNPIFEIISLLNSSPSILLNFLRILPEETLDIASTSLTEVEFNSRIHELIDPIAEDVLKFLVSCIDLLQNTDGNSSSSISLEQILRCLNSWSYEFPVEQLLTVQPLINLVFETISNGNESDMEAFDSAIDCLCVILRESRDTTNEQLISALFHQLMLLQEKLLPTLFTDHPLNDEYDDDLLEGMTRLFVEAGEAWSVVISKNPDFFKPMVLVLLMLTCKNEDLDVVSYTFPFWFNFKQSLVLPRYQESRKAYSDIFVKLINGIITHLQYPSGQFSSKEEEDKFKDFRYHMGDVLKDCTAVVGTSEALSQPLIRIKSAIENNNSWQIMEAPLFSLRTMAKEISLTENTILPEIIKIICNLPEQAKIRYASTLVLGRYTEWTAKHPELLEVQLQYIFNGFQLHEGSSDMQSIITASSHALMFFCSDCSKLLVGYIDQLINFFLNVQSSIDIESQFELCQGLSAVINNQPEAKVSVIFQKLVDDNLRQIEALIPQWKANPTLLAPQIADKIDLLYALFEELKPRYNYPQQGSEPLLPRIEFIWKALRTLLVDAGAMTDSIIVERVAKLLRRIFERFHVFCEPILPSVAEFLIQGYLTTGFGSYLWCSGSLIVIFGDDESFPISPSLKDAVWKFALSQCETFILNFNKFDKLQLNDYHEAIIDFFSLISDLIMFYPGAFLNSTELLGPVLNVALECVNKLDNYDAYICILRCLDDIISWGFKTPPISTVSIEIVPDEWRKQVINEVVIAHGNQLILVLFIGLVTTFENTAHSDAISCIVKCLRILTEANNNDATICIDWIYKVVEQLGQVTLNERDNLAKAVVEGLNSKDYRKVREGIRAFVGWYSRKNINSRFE

[2] = target: T2, myc-tagged Mtr10 (S. cerevisiae) (UniProt Q99189); assay: co-IP; yeast lysate in IP buffer (1 x PBS, 3 mM KCl, 2.5 mM MgCl2, 0.5% Triton X-100, protease inhibitors); myc-tagged bait on Myc-trap beads, 1 h at 4 °C, five washes; Western blot
T2 sequence: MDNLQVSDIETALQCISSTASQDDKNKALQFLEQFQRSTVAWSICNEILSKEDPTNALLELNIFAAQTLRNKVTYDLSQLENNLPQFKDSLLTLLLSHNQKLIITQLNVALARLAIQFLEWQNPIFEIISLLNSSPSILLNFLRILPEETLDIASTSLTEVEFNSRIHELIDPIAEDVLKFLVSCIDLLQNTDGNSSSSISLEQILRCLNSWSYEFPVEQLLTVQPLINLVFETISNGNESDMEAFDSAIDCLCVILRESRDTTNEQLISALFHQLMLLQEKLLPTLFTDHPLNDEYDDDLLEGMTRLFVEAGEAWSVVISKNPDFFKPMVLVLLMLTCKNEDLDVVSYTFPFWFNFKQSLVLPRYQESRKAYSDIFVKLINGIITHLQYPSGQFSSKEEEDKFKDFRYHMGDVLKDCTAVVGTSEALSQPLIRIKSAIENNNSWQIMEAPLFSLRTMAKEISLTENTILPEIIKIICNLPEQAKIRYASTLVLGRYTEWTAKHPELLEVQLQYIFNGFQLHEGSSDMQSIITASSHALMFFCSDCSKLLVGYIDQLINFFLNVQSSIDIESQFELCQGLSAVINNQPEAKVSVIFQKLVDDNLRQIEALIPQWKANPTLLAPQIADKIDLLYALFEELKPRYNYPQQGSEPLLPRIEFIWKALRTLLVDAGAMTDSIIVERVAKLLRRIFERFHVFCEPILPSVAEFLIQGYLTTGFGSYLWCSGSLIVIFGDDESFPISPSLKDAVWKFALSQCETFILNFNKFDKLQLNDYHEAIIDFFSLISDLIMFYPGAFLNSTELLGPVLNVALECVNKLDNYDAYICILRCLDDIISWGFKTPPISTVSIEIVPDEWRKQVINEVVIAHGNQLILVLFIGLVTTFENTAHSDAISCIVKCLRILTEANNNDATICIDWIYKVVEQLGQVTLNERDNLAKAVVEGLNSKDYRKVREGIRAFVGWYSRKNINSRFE

[3] = target: T3, GFP-tagged Smb1 (S. cerevisiae) (UniProt P40018); assay: co-IP; yeast lysate in IP buffer (1 x PBS, 3 mM KCl, 2.5 mM MgCl2, 0.5% Triton X-100, protease inhibitors); GFP-tagged bait on GFP-Selector beads, 1 h at 4 °C, five washes; Western blot
T3 sequence: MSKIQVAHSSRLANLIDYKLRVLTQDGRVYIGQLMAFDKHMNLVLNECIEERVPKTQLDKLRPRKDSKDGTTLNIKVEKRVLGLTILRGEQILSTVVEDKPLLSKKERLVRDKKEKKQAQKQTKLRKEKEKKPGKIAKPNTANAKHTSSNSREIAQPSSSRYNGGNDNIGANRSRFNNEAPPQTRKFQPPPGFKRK

[4] = target: T4, GFP-tagged Pop1 (S. cerevisiae) (UniProt P41812); assay: as above
T4 sequence: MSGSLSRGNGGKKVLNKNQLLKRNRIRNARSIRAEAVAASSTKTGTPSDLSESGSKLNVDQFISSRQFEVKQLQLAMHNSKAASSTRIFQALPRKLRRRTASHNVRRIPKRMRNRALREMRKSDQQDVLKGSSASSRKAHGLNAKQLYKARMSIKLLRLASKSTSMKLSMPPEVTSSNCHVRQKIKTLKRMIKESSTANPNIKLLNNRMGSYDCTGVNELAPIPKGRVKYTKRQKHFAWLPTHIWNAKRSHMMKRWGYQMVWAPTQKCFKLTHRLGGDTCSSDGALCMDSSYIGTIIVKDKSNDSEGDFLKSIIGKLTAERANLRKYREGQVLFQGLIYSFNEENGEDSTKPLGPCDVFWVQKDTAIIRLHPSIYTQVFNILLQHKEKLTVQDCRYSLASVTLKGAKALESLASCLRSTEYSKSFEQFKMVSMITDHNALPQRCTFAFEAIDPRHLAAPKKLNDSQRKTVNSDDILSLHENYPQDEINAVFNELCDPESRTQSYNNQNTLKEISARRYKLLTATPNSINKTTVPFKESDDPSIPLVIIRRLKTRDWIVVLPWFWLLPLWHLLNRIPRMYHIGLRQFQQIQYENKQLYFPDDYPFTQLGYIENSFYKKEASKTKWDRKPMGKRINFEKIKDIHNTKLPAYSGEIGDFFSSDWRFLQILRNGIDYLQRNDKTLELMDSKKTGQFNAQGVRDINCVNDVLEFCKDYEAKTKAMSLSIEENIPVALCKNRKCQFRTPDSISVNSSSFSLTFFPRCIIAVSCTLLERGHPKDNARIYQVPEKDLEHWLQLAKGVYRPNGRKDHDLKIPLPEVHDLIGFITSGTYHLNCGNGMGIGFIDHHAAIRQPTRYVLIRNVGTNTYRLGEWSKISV

binding [1]: no binding
B1: myc-tagged Est1 (protein, UniProt P17214 1-699)
chain: MDNEEVNEECMRLFFKNARAHLDKHLTSRLTCDENAYITFRCFLDGIHRKSTRFLEELLLKQENMYHNNNYERINDSVIPLVLKLLWLQIHEPTLQWFEHWFHDIMRLSNRRKFRVFRIFQKKMIQFFKITHRYYYDIIEHLCAKYDMNSVISNALFAKLNLMQYTDGLSTHEKIILNTSNPLTFSIVISLQRCVINLGSTHFYKTLLNKPSNKPKSVEGFEKSIRYLNIASLYLPAVGDTYFQRAKIYLITGKFSLYFFELVRGALVRIPSKCALNNLKDFILTPDFPERRRLMKKLAILVSKDLKGEKSFFEGQIVLQFLSIVEHTLVPQSWNASRASNCWLLKEHLQMAALKYHSGNINVILENLAATMGSFDLMFTTRKSKEQKNKLKYADLSERQVFFLDLSFDFIANIIDVVIKPSWQKNMEDFRYLAIIRLLMCWIKSYRSILQYTHRHRKFCTSFALLLNDLINSPLNCSGNIYSHRPKRSYLFREDIIFREFSCINFALTDFNDDYVYDSPDMINNIIGCPTLTKVLSPKEECVLRIRSIIFSGMKFLEKNDTGVIWNASKYKFDLISPNIKIKRQIALSEISSKINVKTQQERVVSSRKVEAKRDEQQRKRAGKIAVTELEKQFANVRRTKKLSPLPEKDGVSSELVKHAASRGRKTITGPLSSDFLSYPDEAIDADEDITVQVPDTPT

binding [2]: no binding
B2: Yku70 (protein, UniProt P32807 1-602)
chain: MRSVTNAFGNSGELNDQVDETGYRKFDIHEGILFCIELSETMFKESSDLEYKSPLLEILESLDELMSQLVITRPGTAIGCYFYYCNREDAKEGIYELFPLRDINATFMKKLNDLLEDLSSGRISLYDYFMFQQTGSEKQVRLSVLFTFMLDTFLEEIPGQKQLSNKRVFLFTDIDKPQEAQDIDERARLRRLTIDLFDNKVNFATFFIGYADKPFDNEFYSDILQLGSHTNENTGLDSEFDGPSTKPIDAKYIKSRILRKKEVKRIMFQCPLILDEKTNFIVGVKGYTMYTHEKAGVRYKLVYEHEDIRQEAYSKRKFLNPITGEDVTGKTVKVYPYGDLDINLSDSQDQIVMEAYTQKDAFLKIIGFRSSSKSIHYFNNIDKSSFIVPDEAKYEGSIRTLASLLKILRKKDKIAILWGKLKSNSHPSLYTLSPSSVKDYNEGFYLYRVPFLDEIRKFPSLLSYDDGSEHKLDYDNMKKVTQSIMGYFNLRDGYNPSDFKNPLLQKHYKVLHDYLLQIETTFDENETPNTKKDRMMREDDSLRKLYYIRNKILESEKSEDPIIQRLNKYVKIWNMFYKKFNDDNISIKEEKKPFDKKPKFNI

binding [3]: binds
binding [4]: no binding
B3: myc-tagged Mtr10 (protein, UniProt Q99189 1-972)
chain: MDNLQVSDIETALQCISSTASQDDKNKALQFLEQFQRSTVAWSICNEILSKEDPTNALLELNIFAAQTLRNKVTYDLSQLENNLPQFKDSLLTLLLSHNQKLIITQLNVALARLAIQFLEWQNPIFEIISLLNSSPSILLNFLRILPEETLDIASTSLTEVEFNSRIHELIDPIAEDVLKFLVSCIDLLQNTDGNSSSSISLEQILRCLNSWSYEFPVEQLLTVQPLINLVFETISNGNESDMEAFDSAIDCLCVILRESRDTTNEQLISALFHQLMLLQEKLLPTLFTDHPLNDEYDDDLLEGMTRLFVEAGEAWSVVISKNPDFFKPMVLVLLMLTCKNEDLDVVSYTFPFWFNFKQSLVLPRYQESRKAYSDIFVKLINGIITHLQYPSGQFSSKEEEDKFKDFRYHMGDVLKDCTAVVGTSEALSQPLIRIKSAIENNNSWQIMEAPLFSLRTMAKEISLTENTILPEIIKIICNLPEQAKIRYASTLVLGRYTEWTAKHPELLEVQLQYIFNGFQLHEGSSDMQSIITASSHALMFFCSDCSKLLVGYIDQLINFFLNVQSSIDIESQFELCQGLSAVINNQPEAKVSVIFQKLVDDNLRQIEALIPQWKANPTLLAPQIADKIDLLYALFEELKPRYNYPQQGSEPLLPRIEFIWKALRTLLVDAGAMTDSIIVERVAKLLRRIFERFHVFCEPILPSVAEFLIQGYLTTGFGSYLWCSGSLIVIFGDDESFPISPSLKDAVWKFALSQCETFILNFNKFDKLQLNDYHEAIIDFFSLISDLIMFYPGAFLNSTELLGPVLNVALECVNKLDNYDAYICILRCLDDIISWGFKTPPISTVSIEIVPDEWRKQVINEVVIAHGNQLILVLFIGLVTTFENTAHSDAISCIVKCLRILTEANNNDATICIDWIYKVVEQLGQVTLNERDNLAKAVVEGLNSKDYRKVREGIRAFVGWYSRKNINSRFE
